From the supplement of paper PMC10849652
This is one part of the list.

Amino acid sequences for entries named in this document (tags omitted). A change or cut given only in a name is not applied to a line headed by its entry.
UniProt Q99719: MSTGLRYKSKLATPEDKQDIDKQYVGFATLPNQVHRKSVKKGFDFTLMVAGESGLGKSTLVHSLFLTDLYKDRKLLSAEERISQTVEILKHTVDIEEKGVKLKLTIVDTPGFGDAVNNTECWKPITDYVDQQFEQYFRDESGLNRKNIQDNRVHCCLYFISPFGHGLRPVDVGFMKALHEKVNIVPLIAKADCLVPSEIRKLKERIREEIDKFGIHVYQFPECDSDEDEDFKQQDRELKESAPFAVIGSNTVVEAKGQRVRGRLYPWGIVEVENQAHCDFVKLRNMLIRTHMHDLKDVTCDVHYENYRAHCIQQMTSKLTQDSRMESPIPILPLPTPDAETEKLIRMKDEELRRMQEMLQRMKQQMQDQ
UniProt Q15424: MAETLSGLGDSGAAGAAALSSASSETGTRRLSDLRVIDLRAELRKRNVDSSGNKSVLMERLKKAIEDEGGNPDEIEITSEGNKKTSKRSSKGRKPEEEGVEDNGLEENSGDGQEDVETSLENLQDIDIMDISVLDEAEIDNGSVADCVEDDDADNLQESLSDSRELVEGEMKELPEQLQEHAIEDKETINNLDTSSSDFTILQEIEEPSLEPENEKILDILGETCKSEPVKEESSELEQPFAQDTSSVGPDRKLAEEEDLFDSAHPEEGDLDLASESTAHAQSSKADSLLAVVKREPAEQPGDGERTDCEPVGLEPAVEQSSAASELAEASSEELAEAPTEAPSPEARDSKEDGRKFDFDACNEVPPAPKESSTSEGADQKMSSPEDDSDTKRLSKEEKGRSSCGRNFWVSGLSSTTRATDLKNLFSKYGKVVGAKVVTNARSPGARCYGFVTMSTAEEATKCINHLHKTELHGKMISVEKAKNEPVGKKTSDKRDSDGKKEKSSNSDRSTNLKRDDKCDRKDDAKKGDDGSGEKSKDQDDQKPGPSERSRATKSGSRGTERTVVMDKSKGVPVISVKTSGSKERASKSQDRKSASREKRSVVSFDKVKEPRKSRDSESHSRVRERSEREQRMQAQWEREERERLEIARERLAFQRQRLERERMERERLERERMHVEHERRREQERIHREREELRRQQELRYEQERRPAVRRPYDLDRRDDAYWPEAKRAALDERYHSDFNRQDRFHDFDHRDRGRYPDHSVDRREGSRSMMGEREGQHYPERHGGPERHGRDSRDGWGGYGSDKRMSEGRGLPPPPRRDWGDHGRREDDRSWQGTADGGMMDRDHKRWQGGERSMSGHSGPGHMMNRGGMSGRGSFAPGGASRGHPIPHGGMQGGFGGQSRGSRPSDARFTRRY
UniProt Q9NRP4: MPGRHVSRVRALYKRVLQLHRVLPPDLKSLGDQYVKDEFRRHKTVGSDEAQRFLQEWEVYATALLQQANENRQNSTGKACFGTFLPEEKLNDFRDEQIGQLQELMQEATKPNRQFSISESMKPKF
UniProt Q14108: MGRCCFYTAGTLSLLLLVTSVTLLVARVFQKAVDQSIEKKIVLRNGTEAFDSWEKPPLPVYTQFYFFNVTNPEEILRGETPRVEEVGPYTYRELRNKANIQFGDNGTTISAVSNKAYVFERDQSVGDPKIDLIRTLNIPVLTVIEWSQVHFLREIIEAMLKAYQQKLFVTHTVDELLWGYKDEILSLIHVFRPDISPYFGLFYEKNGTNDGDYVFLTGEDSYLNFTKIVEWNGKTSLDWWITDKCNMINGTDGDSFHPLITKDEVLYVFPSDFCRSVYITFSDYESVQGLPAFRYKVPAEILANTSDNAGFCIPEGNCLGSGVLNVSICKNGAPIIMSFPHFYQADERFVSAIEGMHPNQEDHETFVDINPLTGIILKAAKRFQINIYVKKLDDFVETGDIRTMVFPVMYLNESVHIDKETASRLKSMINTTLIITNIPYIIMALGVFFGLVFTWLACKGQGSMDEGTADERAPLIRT
UniProt Q9UHD8: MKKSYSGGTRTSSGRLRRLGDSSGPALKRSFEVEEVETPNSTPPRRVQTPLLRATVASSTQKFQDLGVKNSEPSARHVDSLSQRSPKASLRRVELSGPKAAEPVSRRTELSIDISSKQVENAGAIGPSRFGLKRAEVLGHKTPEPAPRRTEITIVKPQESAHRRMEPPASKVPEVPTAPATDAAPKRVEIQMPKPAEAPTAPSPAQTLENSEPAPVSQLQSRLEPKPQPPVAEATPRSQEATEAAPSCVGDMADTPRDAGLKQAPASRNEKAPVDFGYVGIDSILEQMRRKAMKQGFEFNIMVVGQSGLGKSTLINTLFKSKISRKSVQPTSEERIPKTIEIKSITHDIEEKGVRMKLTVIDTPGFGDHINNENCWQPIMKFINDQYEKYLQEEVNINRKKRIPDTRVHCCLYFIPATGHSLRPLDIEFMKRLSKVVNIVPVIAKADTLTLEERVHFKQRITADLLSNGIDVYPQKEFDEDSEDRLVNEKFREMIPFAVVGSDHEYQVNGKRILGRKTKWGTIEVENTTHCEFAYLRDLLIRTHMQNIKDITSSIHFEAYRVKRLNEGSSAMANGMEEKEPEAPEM
UniProt O75396: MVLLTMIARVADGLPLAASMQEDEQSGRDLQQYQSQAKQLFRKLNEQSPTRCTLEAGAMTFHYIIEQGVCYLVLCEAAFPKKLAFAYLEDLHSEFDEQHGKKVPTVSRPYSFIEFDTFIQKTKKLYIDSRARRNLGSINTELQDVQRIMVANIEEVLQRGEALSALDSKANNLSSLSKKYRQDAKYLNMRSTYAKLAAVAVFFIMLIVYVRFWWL
UniProt O95248: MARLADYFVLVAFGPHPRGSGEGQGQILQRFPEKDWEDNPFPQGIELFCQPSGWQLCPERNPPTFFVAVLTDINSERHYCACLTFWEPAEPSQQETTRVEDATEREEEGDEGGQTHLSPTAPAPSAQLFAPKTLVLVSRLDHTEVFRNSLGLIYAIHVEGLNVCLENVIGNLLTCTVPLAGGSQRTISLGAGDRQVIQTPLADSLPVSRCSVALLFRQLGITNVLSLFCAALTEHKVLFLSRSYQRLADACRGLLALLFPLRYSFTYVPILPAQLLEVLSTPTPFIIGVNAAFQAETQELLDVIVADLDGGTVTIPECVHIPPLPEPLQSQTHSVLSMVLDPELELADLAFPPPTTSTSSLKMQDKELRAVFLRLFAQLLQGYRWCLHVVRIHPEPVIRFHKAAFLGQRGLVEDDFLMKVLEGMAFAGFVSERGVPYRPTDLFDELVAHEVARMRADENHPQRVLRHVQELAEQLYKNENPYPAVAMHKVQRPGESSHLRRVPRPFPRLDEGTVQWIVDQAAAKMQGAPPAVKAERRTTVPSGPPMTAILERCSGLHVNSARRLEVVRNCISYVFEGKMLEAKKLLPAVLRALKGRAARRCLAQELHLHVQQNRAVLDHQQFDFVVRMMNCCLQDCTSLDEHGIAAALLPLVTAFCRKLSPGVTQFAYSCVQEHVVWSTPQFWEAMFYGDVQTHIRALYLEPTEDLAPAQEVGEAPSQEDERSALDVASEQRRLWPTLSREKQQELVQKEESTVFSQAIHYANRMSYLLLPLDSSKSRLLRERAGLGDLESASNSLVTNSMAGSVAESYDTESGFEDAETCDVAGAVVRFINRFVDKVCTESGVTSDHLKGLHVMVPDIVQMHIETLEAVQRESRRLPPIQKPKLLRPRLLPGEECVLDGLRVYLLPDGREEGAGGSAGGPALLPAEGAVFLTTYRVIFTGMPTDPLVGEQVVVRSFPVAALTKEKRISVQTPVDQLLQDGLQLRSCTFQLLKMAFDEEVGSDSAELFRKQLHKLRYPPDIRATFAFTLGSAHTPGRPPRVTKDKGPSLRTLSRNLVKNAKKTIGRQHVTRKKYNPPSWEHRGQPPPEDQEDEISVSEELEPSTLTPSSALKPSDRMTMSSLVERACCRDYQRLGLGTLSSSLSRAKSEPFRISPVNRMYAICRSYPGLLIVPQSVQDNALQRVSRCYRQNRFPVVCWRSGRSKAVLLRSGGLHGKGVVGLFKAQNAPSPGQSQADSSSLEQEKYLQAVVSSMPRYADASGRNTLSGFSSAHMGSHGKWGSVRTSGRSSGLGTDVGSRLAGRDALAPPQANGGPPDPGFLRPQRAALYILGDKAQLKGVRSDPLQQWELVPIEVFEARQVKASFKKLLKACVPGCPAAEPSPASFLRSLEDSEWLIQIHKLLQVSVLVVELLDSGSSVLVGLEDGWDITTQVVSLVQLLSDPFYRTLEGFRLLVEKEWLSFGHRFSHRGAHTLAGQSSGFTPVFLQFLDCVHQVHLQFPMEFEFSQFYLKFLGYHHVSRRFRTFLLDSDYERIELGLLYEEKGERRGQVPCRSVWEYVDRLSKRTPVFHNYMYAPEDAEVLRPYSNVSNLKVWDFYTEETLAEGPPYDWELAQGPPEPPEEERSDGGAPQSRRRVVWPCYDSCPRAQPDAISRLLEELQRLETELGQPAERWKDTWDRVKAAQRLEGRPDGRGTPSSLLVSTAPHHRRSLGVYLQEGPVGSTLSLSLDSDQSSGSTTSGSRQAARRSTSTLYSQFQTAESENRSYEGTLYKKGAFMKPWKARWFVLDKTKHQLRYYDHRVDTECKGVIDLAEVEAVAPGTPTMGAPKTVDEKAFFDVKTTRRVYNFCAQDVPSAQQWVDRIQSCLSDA
UniProt Q6IQ49: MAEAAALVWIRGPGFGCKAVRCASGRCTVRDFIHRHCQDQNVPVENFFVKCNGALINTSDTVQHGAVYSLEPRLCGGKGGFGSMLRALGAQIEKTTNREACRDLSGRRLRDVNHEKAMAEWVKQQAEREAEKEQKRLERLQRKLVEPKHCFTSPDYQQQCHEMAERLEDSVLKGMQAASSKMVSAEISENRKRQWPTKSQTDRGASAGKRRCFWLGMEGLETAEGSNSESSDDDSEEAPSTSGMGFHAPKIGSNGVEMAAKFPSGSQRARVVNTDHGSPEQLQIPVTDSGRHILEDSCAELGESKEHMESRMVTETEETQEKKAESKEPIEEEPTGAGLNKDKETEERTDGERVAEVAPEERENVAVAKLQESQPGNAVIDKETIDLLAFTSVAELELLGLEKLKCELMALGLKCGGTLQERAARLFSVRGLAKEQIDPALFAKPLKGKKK
UniProt Q5PRF9: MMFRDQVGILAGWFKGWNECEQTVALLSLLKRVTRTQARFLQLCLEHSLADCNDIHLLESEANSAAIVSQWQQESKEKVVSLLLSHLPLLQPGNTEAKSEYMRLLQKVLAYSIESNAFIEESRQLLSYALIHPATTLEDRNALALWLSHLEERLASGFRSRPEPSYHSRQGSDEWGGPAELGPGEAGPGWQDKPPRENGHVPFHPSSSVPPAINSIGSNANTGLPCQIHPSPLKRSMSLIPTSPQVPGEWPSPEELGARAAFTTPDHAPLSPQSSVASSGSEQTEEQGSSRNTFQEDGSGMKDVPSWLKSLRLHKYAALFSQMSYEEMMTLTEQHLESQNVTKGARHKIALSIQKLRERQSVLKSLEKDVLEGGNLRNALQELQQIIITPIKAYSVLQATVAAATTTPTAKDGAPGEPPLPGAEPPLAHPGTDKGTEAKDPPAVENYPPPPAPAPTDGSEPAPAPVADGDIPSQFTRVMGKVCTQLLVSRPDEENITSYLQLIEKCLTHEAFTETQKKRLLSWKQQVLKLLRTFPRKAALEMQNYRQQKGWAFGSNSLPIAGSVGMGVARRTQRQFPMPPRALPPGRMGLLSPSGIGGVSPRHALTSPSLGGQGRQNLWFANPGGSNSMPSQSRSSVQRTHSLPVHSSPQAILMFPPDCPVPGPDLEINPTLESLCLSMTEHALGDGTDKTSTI
UniProt Q8WTV0: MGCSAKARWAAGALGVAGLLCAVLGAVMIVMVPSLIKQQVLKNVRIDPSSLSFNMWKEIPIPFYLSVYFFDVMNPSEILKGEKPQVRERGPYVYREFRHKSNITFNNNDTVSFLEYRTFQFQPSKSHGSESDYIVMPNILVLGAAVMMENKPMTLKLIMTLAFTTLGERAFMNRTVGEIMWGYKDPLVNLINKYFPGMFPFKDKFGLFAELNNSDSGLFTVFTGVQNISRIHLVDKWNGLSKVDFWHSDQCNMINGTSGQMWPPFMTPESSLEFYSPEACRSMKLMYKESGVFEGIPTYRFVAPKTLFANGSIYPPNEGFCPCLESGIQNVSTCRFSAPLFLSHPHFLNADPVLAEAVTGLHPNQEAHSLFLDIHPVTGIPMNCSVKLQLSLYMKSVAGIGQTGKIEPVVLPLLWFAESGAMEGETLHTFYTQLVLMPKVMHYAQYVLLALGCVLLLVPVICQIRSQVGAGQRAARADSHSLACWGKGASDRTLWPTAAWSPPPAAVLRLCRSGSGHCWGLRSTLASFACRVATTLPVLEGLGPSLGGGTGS

Assays:
Assay in all cases: log2 fold change, soluble protein after heating vs DMSO (PISA); higher = thermal stabilisation; K562 lysate, 10 uM; active = over 0.2 and 3.5 SD of the protein, either way, in both replicates (recomputed)
vemurafenib = compound: CCCS(=O)(=O)Nc1ccc(F)c(C(=O)c2c[nH]c3ncc(-c4ccc(Cl)cc4)cc23)c1F [vemurafenib]
In short: (§1)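 To prepare the extract, K562 pellets were dounce-homogenised in PBS pH 7.4 with 1 mM MgCl2, giving crude material at 1 mg/mL protein. This was treated with 10 μM compound for 30 min, then heated in aliquots for 3 min over 48°C-58°C before pooling and addition of NP-40 to 0.5% at 4°C. Centrifugation at 21,000xg for 90 min left soluble protein in the supernatant, which TMTpro 16plex LC-MS/MS quantified with equalised channel sums. Results are log-two fold changes in thermal stability compared with solvent controls, from duplicates.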

[1] = compound: CCCS(=O)(=O)Nc1ccc(F)c(C(=O)c2c[nH]c3ncc(Cl)cc23)c1F
In short: as §1

barasertib = compound: CCN(CCCOc1ccc2c(Nc3cc(CC(=O)Nc4cccc(F)c4)[nH]n3)ncnc2c1)CCOP(=O)(O)O [barasertib]
In short: as §1

[2] = compound: CC[C@@H]1C(=O)N(C)c2cnc(Nc3ccc(C(=O)NC4CCN(C)CC4)cc3OC)nc2N1C1CCCC1
In short: as §1

volasertib = compound: CC[C@@H]1C(=O)N(C)c2cnc(Nc3ccc(C(=O)N[C@H]4CC[C@H](N5CCN(CC6CC6)CC5)CC4)cc3OC)nc2N1C(C)C [volasertib]
In short: as §1

[3] = compound: CCn1c(C(=O)N(C2CC2)C2CC2)cc2c3c(ncn3C)c(Nc3cc(C)n(C)n3)nc21
In short: as §1

[4] = compound: CCn1cc(-c2ccnc3[nH]c(-c4cccc(CN(C)C)c4)cc23)c(-c2ccc(NC(=O)N(C)C)cc2)n1
In short: as §1

[5] = compound: CN1CCC(CNc2ccc3ncc(-c4cccc(OC(F)(F)F)c4)n3n2)CC1
In short: as §1

saracatinib = compound: CN1CCN(CCOc2cc(OC3CCOCC3)c3c(Nc4c(Cl)ccc5c4OCO5)ncnc3c2)CC1 [saracatinib]
In short: as §1

sotrastaurin = compound: CN1CCN(c2nc(C3=C(c4c[nH]c5ccccc45)C(=O)NC3=O)c3ccccc3n2)CC1 [sotrastaurin]
In short: as §1

alvocidib = compound: CN1CC[C@H](c2c(O)cc(O)c3c(=O)cc(-c4ccccc4Cl)oc23)[C@H](O)C1 [alvocidib]
In short: as §1

Tubastatin A = compound: CN1CCc2c(c3ccccc3n2Cc2ccc(C(=O)NO)cc2)C1 [Tubastatin A]
In short: as §1

[6] = compound: CNC(=O)C1=CC=CC=C1NC2=NC(=NC=C2Cl)NC3=C(C=C(C=C3)N4CCOCC4)OC
In short: as §1

defactinib = compound: CNC(=O)c1ccc(Nc2ncc(C(F)(F)F)c(NCc3nccnc3N(C)S(C)(=O)=O)n2)cc1 [defactinib]
In short: as §1

[7] = compound: CNc1nc(-c2ccc3c(N)n[nH]c3c2)cc(N2C[C@@H](C(=O)NC3CCCCC3)CC[C@H]2C)n1
In short: as §1

encorafenib = compound: COC(=O)N[C@@H](C)CNc1nccc(-c2cn(C(C)C)nc2-c2cc(Cl)cc(NS(C)(=O)=O)c2F)n1 [encorafenib]
In short: as §1

[8] = compound: COC(=O)[C@H](CCSC)NC(=O)C1=C(C=C(C=C1)NC[C@H](CS)N)C2=CC=CC=C2
In short: as §1

alisertib = compound: COc1cc(Nc2ncc3c(n2)-c2ccc(Cl)cc2C(c2c(F)cccc2OC)=NC3)ccc1C(=O)O [alisertib]
In short: as §1

[9] = compound: COc1cc2nc(-c3cc(F)ccc3O)nc(N[C@@H]3CNC[C@H]3C(C)(C)O)c2cc1OC
In short: as §1

gefitinib = compound: COc1cc2ncnc(Nc3ccc(F)c(Cl)c3)c2cc1OCCCN1CCOCC1 [gefitinib]
In short: as §1

Measured: log2 fold change

SEPTIN5 (UniProt Q99719)
inactive: vemurafenib -0.004 | [1] 0.005 | barasertib -0.004 | [2] -0.003 | volasertib -0.017 | [3] 0.015 | [4] 0.022 | [5] -0.011 | saracatinib -0.043 | sotrastaurin -0.035 | alvocidib 0.039 | Tubastatin A -0.014 | [6] -0.014 | defactinib -0.026 | [7] 0.013 | encorafenib -0.005 | [8] 0.004 | alisertib 0.002 | [9] -0.026 | gefitinib -0.021

SAFB isoform 3 (UniProt Q15424)
inactive: vemurafenib 0.038 | [1] 0.017 | barasertib 0.018 | [2] 0.054 | volasertib -0.019 | [3] 0.016 | [4] -0.16 | [5] 0.054 | saracatinib -0.025 | sotrastaurin 0.02 | alvocidib -0.004 | Tubastatin A 0.024 | [6] -0.016 | defactinib -0.043 | [7] 0.075 | encorafenib 0.021 | [8] -0.034 | alisertib 0.062 | [9] -0.028 | gefitinib 0.263

SARG (UniProt Q9BW04)
inactive: vemurafenib 0.035 | [1] 0.019 | barasertib -0.01 | [2] 0.092 | volasertib 0.024 | [3] -0.013 | [4] 0.002 | [5] 0.012 | saracatinib 0.006 | sotrastaurin -0.014 | alvocidib -0.035 | Tubastatin A 0.014 | [6] 0.053 | defactinib 0.005 | [7] 0.079 | encorafenib 0.015 | [8] -0.072 | alisertib -0.015 | [9] 0.028 | gefitinib 0.053

SDHAF3 (UniProt Q9NRP4)
inactive: vemurafenib -0.095 | [1] -0.001 | barasertib 0.051 | [2] -0.032 | volasertib -0.033 | [3] 0.009 | [4] 0.001 | [5] 0.073 | saracatinib -0.024 | sotrastaurin -0.016 | alvocidib 0.005 | Tubastatin A -0.08 | [6] 0.089 | defactinib -0.013 | [7] -0.097 | encorafenib 0.047 | [8] -0.108 | alisertib -0.029 | [9] -0.001 | gefitinib 0.009

SCARB2 (UniProt Q14108)
inactive: vemurafenib -0.005 | [1] -0.003 | barasertib -0.011 | [2] 0 | volasertib 0.014 | [3] 0.026 | [4] 0.127 | [5] -0.07 | saracatinib 0.017 | sotrastaurin -0.004 | alvocidib 0.046 | Tubastatin A 0.018 | [6] 0.016 | defactinib -0.002 | [7] -0.005 | encorafenib -0.003 | [8] -0.082 | alisertib -0.028 | [9] 0.026 | gefitinib -0.01

SEPTIN9 (UniProt Q9UHD8)
inactive: vemurafenib -0.012 | [1] -0.009 | barasertib -0.003 | [2] 0.019 | volasertib 0.021 | [3] -0.021 | [4] -0.232 | [5] 0.08 | saracatinib 0.011 | sotrastaurin 0.024 | alvocidib -0.067 | Tubastatin A 0.028 | [6] -0.011 | defactinib -0.021 | [7] -0.002 | encorafenib -0.045 | [8] 0.016 | alisertib -0.02 | [9] 0.006 | gefitinib -0.015

SCAP (UniProt Q12770)
inactive: vemurafenib -0.012 | [1] -0.072 | barasertib 0.045 | [2] 0.13 | volasertib -0.064 | [3] 0.039 | [4] -0.062 | [5] 0.074 | saracatinib 0.133 | sotrastaurin 0.006 | alvocidib -0.062 | Tubastatin A -0.094 | [6] -0.09 | defactinib -0.092 | [7] -0.113 | encorafenib -0.024 | [8] -0.113 | alisertib -0.047 | [9] 0.013 | gefitinib -0.035

SEC22B (UniProt O75396)
inactive: vemurafenib 0.04 | [1] 0.008 | barasertib 0.049 | [2] 0.028 | volasertib 0.02 | [3] -0.041 | [4] -0.03 | [5] 0.038 | saracatinib -0.024 | sotrastaurin -0.05 | alvocidib 0.004 | Tubastatin A 0.023 | [6] -0.002 | defactinib -0.02 | [7] 0.001 | encorafenib 0.03 | [8] -0.121 | alisertib -0.02 | [9] 0.027 | gefitinib 0.008

SBF1 isoform 4 (UniProt O95248)
inactive: vemurafenib 0.118 | [1] 0.012 | barasertib 0.033 | [2] 0.071 | volasertib -0.111 | [3] 0.014 | [4] -0.107 | [5] 0.029 | saracatinib 0.062 | sotrastaurin 0 | alvocidib 0.005 | Tubastatin A 0.074 | [6] -0.054 | defactinib 0.022 | [7] -0.099 | encorafenib -0.004 | [8] -0.009 | alisertib 0.238 | [9] 0.008 | gefitinib 0.062

SDE2 (UniProt Q6IQ49)
inactive: vemurafenib -0.038 | [1] 0.028 | barasertib 0.015 | [2] 0.011 | volasertib 0.023 | [3] 0.035 | [4] -0.014 | [5] -0.001 | saracatinib 0.016 | sotrastaurin -0.022 | alvocidib -0.02 | Tubastatin A -0.025 | [6] 0.096 | defactinib 0.009 | [7] 0.091 | encorafenib 0.022 | [8] -0.04 | alisertib -0.006 | [9] -0.006 | gefitinib 0.004

SAMD4B (UniProt Q5PRF9)
inactive: vemurafenib -0.025 | [1] 0.017 | barasertib 0.011 | [2] 0.017 | volasertib -0.007 | [3] 0.024 | [4] -0.09 | [5] 0.069 | saracatinib -0.023 | sotrastaurin -0.027 | alvocidib -0.012 | Tubastatin A -0.053 | [6] 0.017 | defactinib -0.004 | [7] 0.033 | encorafenib -0.021 | [8] 0.019 | alisertib -0.037 | [9] 0.105 | gefitinib -0.003

SAFB2 (UniProt Q14151)
inactive: vemurafenib -0.008 | [1] -0.031 | barasertib -0.028 | [2] 0.027 | volasertib 0.015 | [3] 0.006 | [4] -0.12 | [5] 0.069 | saracatinib -0.026 | sotrastaurin 0.01 | alvocidib 0.017 | Tubastatin A 0.004 | [6] 0.059 | defactinib -0.03 | [7] 0.014 | encorafenib 0.017 | [8] -0.058 | alisertib -0.015 | [9] -0.013 | gefitinib 0.005

SCAF8 (UniProt Q9UPN6)
inactive: vemurafenib 0.002 | [1] 0.01 | barasertib 0.039 | [2] 0.035 | volasertib -0.008 | [3] 0.043 | [4] 0.002 | [5] 0 | saracatinib 0.009 | sotrastaurin -0.038 | alvocidib -0.001 | Tubastatin A -0.068 | [6] -0.028 | defactinib -0.015 | [7] 0.003 | encorafenib 0.02 | [8] 0.043 | alisertib 0.003 | [9] 0.008 | gefitinib -0.007

SCARB1 isoform 2 (UniProt Q8WTV0)
inactive: vemurafenib -0.001 | [1] 0.004 | barasertib -0.035 | [2] -0.014 | volasertib 0.01 | [3] -0.002 | [4] -0.077 | [5] 0.042 | saracatinib 0 | sotrastaurin 0.015 | alvocidib -0.024 | Tubastatin A 0.035 | [6] -0.016 | defactinib 0.036 | [7] 0.005 | encorafenib 0.038 | [8] -0.03 | alisertib 0.016 | [9] 0.012 | gefitinib 0.026

SECISBP2L (UniProt Q93073)
inactive: vemurafenib -0.079 | [1] 0.132 | barasertib -0.141 | [2] 0.089 | volasertib 0.02 | [3] -0.011 | [4] -0.038 | [5] 0.06 | saracatinib -0.002 | sotrastaurin 0.101 | alvocidib -0.103 | Tubastatin A -0.105 | [6] 0.058 | defactinib -0.004 | [7] -0.193 | encorafenib -0.065 | [8] 0.1 | alisertib -0.069 | [9] -0.088 | gefitinib -0.043

Copied from the entries so far (four entries):
SAMD4B (UniProt Q5PRF9)
inactive: vemurafenib -0.025 | [1] 0.017 | barasertib 0.011 | [2] 0.017 | volasertib -0.007 | [3] 0.024 | [4] -0.09 | [5] 0.069 | saracatinib -0.023 | sotrastaurin -0.027 | alvocidib -0.012 | Tubastatin A -0.053 | [6] 0.017 | defactinib -0.004 | [7] 0.033 | encorafenib -0.021 | [8] 0.019 | alisertib -0.037 | [9] 0.105 | gefitinib -0.003

SAFB2 (UniProt Q14151)
inactive: vemurafenib -0.008 | [1] -0.031 | barasertib -0.028 | [2] 0.027 | volasertib 0.015 | [3] 0.006 | [4] -0.12 | [5] 0.069 | saracatinib -0.026 | sotrastaurin 0.01 | alvocidib 0.017 | Tubastatin A 0.004 | [6] 0.059 | defactinib -0.03 | [7] 0.014 | encorafenib 0.017 | [8] -0.058 | alisertib -0.015 | [9] -0.013 | gefitinib 0.005

SCAF8 (UniProt Q9UPN6)
inactive: vemurafenib 0.002 | [1] 0.01 | barasertib 0.039 | [2] 0.035 | volasertib -0.008 | [3] 0.043 | [4] 0.002 | [5] 0 | saracatinib 0.009 | sotrastaurin -0.038 | alvocidib -0.001 | Tubastatin A -0.068 | [6] -0.028 | defactinib -0.015 | [7] 0.003 | encorafenib 0.02 | [8] 0.043 | alisertib 0.003 | [9] 0.008 | gefitinib -0.007

SCARB1 isoform 2 (UniProt Q8WTV0)
inactive: vemurafenib -0.001 | [1] 0.004 | barasertib -0.035 | [2] -0.014 | volasertib 0.01 | [3] -0.002 | [4] -0.077 | [5] 0.042 | saracatinib 0 | sotrastaurin 0.015 | alvocidib -0.024 | Tubastatin A 0.035 | [6] -0.016 | defactinib 0.036 | [7] 0.005 | encorafenib 0.038 | [8] -0.03 | alisertib 0.016 | [9] 0.012 | gefitinib 0.026
